Literature values in patent US10709687B2, “FLT3 receptor inhibitor at low dosage for the treatment of neuropathic pain” (INSTITUT NATIONAL DE LA SANTE ET DE LA RECHERCHE MEDICALE …, priority 2016, dated 2020).
At least one structure is not confirmed: it was looked up by name or label, or the drawing left a doubt.

Details: for chronic myeloid leukemia or acute lymphoblastic leukemia; cited from earlier work

In the case of Cc1ccc(C(=O)Nc2ccc(CN3CCN(C)CC3)c(C(F)(F)F)c2)cc1C#Cc1cnc2cccnn12 [Ponatinib], the “Active dose for treating cancer (by cancer type)” value is given as 45 for chronic myeloid.
